Measured values taken from PubChem BioAssay AID602313 (National Center for Advancing Translational Sciences (NCATS), 2012).
Values joined by “and” are separate entries in the source; they are usually repeats but may differ in a detail not shown here. Equal values may be shown once. Hit rate of the full screen: of about 390,000 compounds, about 760 (0.19%) were called active. Inconclusive results, whose numbers are uncertain, are shown with a selection of clear calls. Calls follow the shape of the dose curve; as a rule, active = well fitted inhibition curve with a large enough effect; inconclusive = small, poorly fitted or top-dose-only effect; inactive = flat fitted curve, though single readings scatter. Where the call is inconclusive, the potency comes from a doubtful curve fit.

Assay: qHTS for Inhibitors of Vif-A3F Interactions: qHTS; also: nearly all actives have a fitted effect of over 65% in size
Settings: HeLa A3F-eYFP + Vif (tagged APOBEC3F with the HIV-1 protein that degrades it), YFP fluorescence increase; series mostly up to 46.1 µM
Summary of the method: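 HeLa cells stably expressing A3F-eYFP plus Vif, plated and incubated overnight at 37 deg C, then exposed to compounds overnight at 37 deg C. Blocked degradation read as raised yellow fluorescence (Ex 488/Em 500-530).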
Potency is read from the fitted curve at half-maximal effect.

SMILES | Potency
Cc1nc2ccccc2nc1OCC(=O)Nc1ccccc1 | inconclusive: 35.5 µM [inhibitor, single point]
COc1ccc(CC(=O)NCc2cn3ccsc3n2)cc1 | inactive
COc1cccc(NC(=O)Cn2c(=O)ccc3cc(S(=O)(=O)N4CCC(C)CC4)ccc32)c1 | inactive
COCCNCc1nc2sc(C)c(-c3ccccc3)c2c(=O)[nH]1 | inconclusive: 35.5 µM [inhibitor, single point]
COc1ccc(-c2cc(-c3c(O)c(OC)c4occc4c3OC)[nH]n2)cc1OC | inactive
CCSc1nc2c([nH]c3ccccc32)c(=O)n1-c1cccc(OC)c1 | inconclusive: 35.5 µM [inhibitor, single point]
C/C(=N\Nc1nc(C)cc(-c2ccccc2)n1)c1ccccc1 | inconclusive: 3.16 µM [inhibitor, partial curve, poor fit]
O=C(Cc1ccc(Br)cc1)NCc1ccccc1 | inconclusive: 1.26 µM [inhibitor, partial curve, poor fit]
Cc1cc(NC(=O)/C(C#N)=C\c2ccc(-c3ccc(SC(F)F)cc3)o2)n(-c2ccccc2)n1 | active: 10 µM
CCOC(=O)c1c(NC(=O)CC2Nc3cc(C)c(C)cc3NC2=O)sc(C)c1C (configuration not stated) | inconclusive: 35.5 µM [inhibitor, single point]
O=[N+]([O-])c1ccccc1/C=C/C=N/n1c(-c2cc(-c3ccccc3)n[nH]2)n[nH]c1=S | inconclusive: 10 µM [inhibitor, partial curve, poor fit]
C[C@@H]1C[C@@H]2OC(=O)[C@]3(C)[C@H]2[C@@H](OC3(C)O)[C@]2(C)C(=O)C=C[C@H]12 (some centres not stated) | inactive
O=C(Nc1cc(-c2nc3cc(Cl)ccc3o2)ccc1Cl)c1cccc2ccccc12 | inconclusive: 5.62 µM [inhibitor, single point]
O=C1CC(=O)N(Cc2ccco2)C(=O)N1 | inconclusive: 22.4 µM [inhibitor, single point]
O=C(COc1ccc([N+](=O)[O-])cc1)NNC(=S)NC(=O)c1ccc(Br)cc1 | inactive
O=C1/C(=C/c2ccc(Cl)cc2)SC(=S)N1CCC(=O)N1CCCCC1CCO (configuration not stated) | inactive
Cc1nnn(-c2nonc2N)c1C(=O)N/N=C/c1ccccc1O | inactive
CC(NCC(=O)Nc1ccccc1C(=O)NC1CC1)c1ccc(S(N)(=O)=O)cc1 (configuration not stated) | inactive
CN(c1ccccc1)c1ccc(/C=C(\CCC(=O)O)c2nc3ccccc3s2)cc1[N+](=O)[O-] | inactive
CCN1CCc2c(sc(NC(=O)c3ccc(S(=O)(=O)N4CCCC4)cc3)c2C(=O)NC)C1 | inconclusive: 35.5 µM [inhibitor, single point]
Cc1cccc(OCCOc2ccccc2C=C(C#N)C#N)c1 | inconclusive: 11.2 µM [inhibitor, partial curve, poor fit]
CCN1CCN(c2oc(/C=C/c3ccccc3)nc2C#N)CC1 | inconclusive: 35.5 µM [inhibitor, single point]
S=C(NCc1ccccc1)Nc1ccc(Cl)cc1 | inactive
O=[N+]([O-])c1cc(CN2CCN(c3cccc(C(F)(F)F)c3)CC2)c2cccnc2c1O | inconclusive: 3.16 µM [inhibitor, partial curve, poor fit]

SMILES | Potency
CC(C(=O)Nc1ccc(O)cc1C(=O)O)N1C(=O)/C(=C\c2cccs2)SC1=S (configuration not stated) | inactive
Cc1ccc(-c2nc(-c3cc4cccc(OCc5cccc(F)c5)c4oc3=O)no2)cc1 | active: 8.91 µM
Cc1cccc(NC(=S)N/N=C/c2ccc([N+](=O)[O-])s2)c1 | inactive
CCO/C=N/Nc1nc(C(F)(F)F)nc2c1cnn2Cc1ccccc1 | inactive
COc1ccc(CC(=O)Nc2cc(-c3nc4cccnc4s3)ccc2C)cc1 | inconclusive: 15.8 µM [inhibitor, single point]
COc1ccc2c(c1)c(C(C)=O)c(C)n2-c1ccccc1OC | inconclusive: 35.5 µM [inhibitor, single point]
COc1ccc2nc(N3CCCC3)c(C#N)cc2c1 | active: 11.2 µM
O=C(CSC1=N/C(=C/c2ccc(Cl)c(Cl)c2)C(=O)N1c1ccccc1F)NC1CC1 | inactive
Cc1ccc(S(=O)(=O)N2CCN(C(=O)C3CCN(C(=O)c4ccc(F)cc4)CC3)CC2)c(C)c1 | inconclusive: 5.62 µM [inhibitor, single point]
CCOC(=O)C1=C(C)Nc2ccccc2N=C1NC(=O)C(c1ccccc1)c1ccccc1 | inconclusive: 35.5 µM [inhibitor, single point]
CCn1c(C)c(C)c2cc(C(=O)N3CCN(c4cccc(C)c4C)CC3)ccc21 | inconclusive: 17.8 µM [inhibitor, single point] and inconclusive: 35.5 µM [inhibitor, single point]
CCc1ccc(/C=C2/SC(=S)N(CCC(=O)Nc3cccnc3)C2=O)cc1 | inactive
Nc1ccc2nc(SCC(=O)c3ccccc3)sc2c1 | inactive
NNC(=O)c1cc(C2CC2)nc2ccc(Br)cc12 | inconclusive: 3.55 µM [inhibitor, full curve, poor fit]
CC(=O)c1sc(N/N=C\c2c(O)ccc3ccccc23)nc1C | inconclusive: 3.16 µM [inhibitor, partial curve, poor fit]
COc1ccc(-c2csc(C(C#N)=C(O)CSc3nccn3C)n2)cc1OC | inconclusive: 35.5 µM [inhibitor, single point]
O=CN/N=C/c1c(O)ccc2ccccc12 | inconclusive: 3.16 µM [inhibitor, partial curve, poor fit]
N#C/C(=C/c1ccc(N2CCCCC2)o1)c1cccc(F)c1 | active: 10 µM
CCOc1ccc(S(=O)(=O)N(CC(=O)NCc2ccncc2)c2ccc(C)cc2)cc1 | inconclusive: 5.62 µM [inhibitor, single point]
CN(C)S(=O)(=O)c1cccc(NC(=S)N/N=C/c2cc(Br)ccc2O)c1 | inactive
O=C(O)c1ccc(C=C(c2nc3ccccc3s2)c2nc3ccccc3s2)cc1 | inactive
O=C1CCCN1CCCNS(=O)(=O)c1cccc(F)c1 | inconclusive: 3.55 µM [inhibitor, partial curve, poor fit]
O=C(/C=C/c1ccccc1)NC(NC(=S)Nc1cc(Cl)ccc1Cl)C(Cl)(Cl)Cl (configuration not stated) | inactive
COc1ccc(NC(=O)c2[nH]c(C)c(C(C)=O)c2C)cc1Cl | inactive

Among those listed so far, 2 have a CF3 group.
SMILES | Potency
O=[N+]([O-])c1cc(CN2CCN(c3cccc(C(F)(F)F)c3)CC2)c2cccnc2c1O | inconclusive: 3.16 µM [inhibitor, partial curve, poor fit]
CCO/C=N/Nc1nc(C(F)(F)F)nc2c1cnn2Cc1ccccc1 | inactive

Later entries:

SMILES | Potency
Cc1nc(S/C(=C/c2ccc(-c3cccc(Cl)c3)o2)C(=O)O)n[nH]1 | inconclusive: 31.6 µM [inhibitor, single point]
O=C(NC1CCCCC1)Oc1cc2oc(=O)sc2cc1Br | inconclusive: 35.5 µM [inhibitor, single point]
N#CC1=C(N)Oc2cc(O)c(Cl)cc2C1c1ccccc1F (configuration not stated) | inconclusive: 17.8 µM [inhibitor, single point]
Oc1c(C(c2ccccc2Cl)N2CCCC2)ccc2cccnc12 (configuration not stated) | inconclusive: 5.01 µM [inhibitor, single point]
CCOCCOC(=O)c1[nH]c2c(c1C)C(=O)CC(c1cccs1)C2 (configuration not stated) | inactive
CC1CCN(S(=O)(=O)c2ccc3nc(Nc4cccc(F)c4)ccc3c2)CC1 | inconclusive: 12.6 µM [inhibitor, single point]
N#CC(=C=[N-])/C=C(\C(=O)c1ccccc1)[n+]1ccccc1 | inconclusive: 1.78 µM [inhibitor, full curve]
Cc1ccc(SCC(=O)Nc2ccc(N3CCN(C)CC3)c(F)c2)c(C)c1 | inactive
O=C(NC(=S)Nc1cccc(Cl)c1N1CCCCC1)c1ccco1 | inactive
CN1CCc2c(sc3c2C(=O)NC(/C=C\c2ccccc2)N3)C1 (configuration not stated) | inconclusive: 22.4 µM [inhibitor, single point]
Cc1ncc([N+](=O)[O-])n1CCOC(=O)c1cc(Cl)cc(Cl)c1N | inactive
Cc1ccccc1NC(=O)N1CCN(C(=O)c2ccco2)CC1 | inconclusive: 6.31 µM [inhibitor, single point]
Cc1ccc(-n2c(Cc3ccccc3)n[nH]c2=S)c(C)c1 | inconclusive: 31.6 µM [inhibitor, single point]
O=C(c1cc2cc(Cl)ccc2oc1=O)N1CCCCCCC1 | inconclusive: 17.8 µM [inhibitor, single point]
COc1ccc(CNC(=O)c2cc(-c3ccc(OC)c(OC)c3)nc3n[nH]c(-c4ccc(C)cc4)c23)cc1 | inconclusive: 12.6 µM [inhibitor, single point]
COc1ccc2[nH]c(C)c(CCNC(=S)Nc3ccc(F)cc3)c2c1 | inconclusive: 15.8 µM [inhibitor, single point]
S=C(NC1CC1)NC1CCCc2ccccc21 (configuration not stated) | inconclusive: 17.8 µM [inhibitor, single point]
O=C(Nc1ccc(F)cc1F)c1ccc(-n2cnc3cccnc32)cc1 | inactive
COC(=O)c1cc(-c2ccc(NC(C)=O)cc2)nc2ccccc12 | inconclusive: 8.91 µM [inhibitor, partial curve, poor fit]
Cc1ccc(S(=O)(=O)N2CCCN(S(=O)(=O)c3ccc(C)cc3)CC2)cc1 | inactive
CCN(CC)c1ccc2cc(C(N)=O)c(=O)oc2c1 | inactive
C[C@H]1CN([C@@H](C)CO)C(=O)CCCn2nncc2CO[C@H]1CN(C)S(=O)(=O)c1cccc(F)c1 | inactive
CC(C)C(=O)Nc1nnc(NC(=S)Nc2ccccc2)s1 | inconclusive: 6.31 µM [inhibitor, single point]
O=C(CSc1nc2ccc(Nc3nc(N4CCOCC4)nc(N4CCOCC4)n3)cc2s1)Nc1ccccc1Cl | inconclusive: 7.94 µM [inhibitor, partial curve]

Of the compounds above, 7 contain a furan ring, fused or not.
SMILES | Potency
COc1ccc(-c2cc(-c3c(O)c(OC)c4occc4c3OC)[nH]n2)cc1OC | inactive
Cc1cc(NC(=O)/C(C#N)=C\c2ccc(-c3ccc(SC(F)F)cc3)o2)n(-c2ccccc2)n1 | active: 10 µM
O=C1CC(=O)N(Cc2ccco2)C(=O)N1 | inconclusive: 22.4 µM [inhibitor, single point]
N#C/C(=C/c1ccc(N2CCCCC2)o1)c1cccc(F)c1 | active: 10 µM
Cc1nc(S/C(=C/c2ccc(-c3cccc(Cl)c3)o2)C(=O)O)n[nH]1 | inconclusive: 31.6 µM [inhibitor, single point]
O=C(NC(=S)Nc1cccc(Cl)c1N1CCCCC1)c1ccco1 | inactive
Cc1ccccc1NC(=O)N1CCN(C(=O)c2ccco2)CC1 | inconclusive: 6.31 µM [inhibitor, single point]
